The supplement of paper PMC10849652
The list shows a part of the results.

Sequences of proteins named here, by UniProt entry; tags and fusion partners are left off. A change or cut given only in a name is not applied to a line headed by its entry.
UniProt Q92599: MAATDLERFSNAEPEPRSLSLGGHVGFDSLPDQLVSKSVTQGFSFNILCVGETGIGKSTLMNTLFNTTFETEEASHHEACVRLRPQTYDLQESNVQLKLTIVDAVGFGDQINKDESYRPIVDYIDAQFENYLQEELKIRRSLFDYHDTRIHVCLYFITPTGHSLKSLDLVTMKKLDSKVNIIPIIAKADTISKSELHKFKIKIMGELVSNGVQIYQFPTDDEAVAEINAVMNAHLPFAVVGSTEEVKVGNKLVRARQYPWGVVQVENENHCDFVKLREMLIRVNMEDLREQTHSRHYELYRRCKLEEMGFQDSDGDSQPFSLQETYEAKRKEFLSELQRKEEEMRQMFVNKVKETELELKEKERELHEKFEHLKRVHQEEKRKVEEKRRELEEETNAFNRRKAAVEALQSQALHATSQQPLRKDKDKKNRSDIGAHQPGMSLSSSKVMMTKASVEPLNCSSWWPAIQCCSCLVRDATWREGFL
UniProt Q9Y3B4: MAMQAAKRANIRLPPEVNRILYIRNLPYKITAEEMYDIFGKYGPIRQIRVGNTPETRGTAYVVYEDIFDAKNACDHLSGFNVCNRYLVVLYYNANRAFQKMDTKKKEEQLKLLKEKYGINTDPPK
UniProt P63208, whole entry, looked up: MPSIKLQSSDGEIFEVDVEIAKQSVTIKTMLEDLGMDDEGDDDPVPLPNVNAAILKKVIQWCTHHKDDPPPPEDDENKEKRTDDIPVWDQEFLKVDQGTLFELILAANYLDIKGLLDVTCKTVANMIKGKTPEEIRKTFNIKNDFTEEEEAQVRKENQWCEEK
UniProt Q8IXJ6: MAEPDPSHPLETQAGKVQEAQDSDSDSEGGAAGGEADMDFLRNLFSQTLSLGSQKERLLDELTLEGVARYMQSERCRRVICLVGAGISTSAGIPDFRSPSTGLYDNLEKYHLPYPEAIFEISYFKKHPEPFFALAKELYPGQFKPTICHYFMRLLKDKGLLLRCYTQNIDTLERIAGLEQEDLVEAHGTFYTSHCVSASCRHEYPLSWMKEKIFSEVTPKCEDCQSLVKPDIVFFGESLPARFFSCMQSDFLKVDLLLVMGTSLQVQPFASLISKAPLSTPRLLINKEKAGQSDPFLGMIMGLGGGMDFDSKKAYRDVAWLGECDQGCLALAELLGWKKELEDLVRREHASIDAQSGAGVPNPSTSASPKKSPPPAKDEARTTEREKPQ
UniProt Q99961: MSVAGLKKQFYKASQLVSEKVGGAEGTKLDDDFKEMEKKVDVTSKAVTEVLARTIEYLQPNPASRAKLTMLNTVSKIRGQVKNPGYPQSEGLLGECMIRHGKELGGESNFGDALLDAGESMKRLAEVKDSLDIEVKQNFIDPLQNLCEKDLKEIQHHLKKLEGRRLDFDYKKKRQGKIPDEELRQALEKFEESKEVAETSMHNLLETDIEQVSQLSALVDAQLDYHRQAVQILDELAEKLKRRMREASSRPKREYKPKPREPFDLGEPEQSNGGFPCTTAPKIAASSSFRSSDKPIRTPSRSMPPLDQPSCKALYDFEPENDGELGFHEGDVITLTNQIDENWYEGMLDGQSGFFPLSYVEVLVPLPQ
UniProt P58004: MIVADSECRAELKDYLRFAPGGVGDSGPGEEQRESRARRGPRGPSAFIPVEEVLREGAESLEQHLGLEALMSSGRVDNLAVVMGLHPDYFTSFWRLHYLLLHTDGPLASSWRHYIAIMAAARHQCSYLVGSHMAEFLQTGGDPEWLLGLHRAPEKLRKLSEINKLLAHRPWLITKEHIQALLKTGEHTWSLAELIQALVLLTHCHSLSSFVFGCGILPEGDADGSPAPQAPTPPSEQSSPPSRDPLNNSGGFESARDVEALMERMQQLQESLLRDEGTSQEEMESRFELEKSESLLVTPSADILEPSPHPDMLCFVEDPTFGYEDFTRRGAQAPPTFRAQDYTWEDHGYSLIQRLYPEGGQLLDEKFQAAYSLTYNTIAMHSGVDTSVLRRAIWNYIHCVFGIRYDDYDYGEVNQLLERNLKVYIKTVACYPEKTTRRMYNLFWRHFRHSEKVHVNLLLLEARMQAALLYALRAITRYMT
UniProt Q8NBJ9: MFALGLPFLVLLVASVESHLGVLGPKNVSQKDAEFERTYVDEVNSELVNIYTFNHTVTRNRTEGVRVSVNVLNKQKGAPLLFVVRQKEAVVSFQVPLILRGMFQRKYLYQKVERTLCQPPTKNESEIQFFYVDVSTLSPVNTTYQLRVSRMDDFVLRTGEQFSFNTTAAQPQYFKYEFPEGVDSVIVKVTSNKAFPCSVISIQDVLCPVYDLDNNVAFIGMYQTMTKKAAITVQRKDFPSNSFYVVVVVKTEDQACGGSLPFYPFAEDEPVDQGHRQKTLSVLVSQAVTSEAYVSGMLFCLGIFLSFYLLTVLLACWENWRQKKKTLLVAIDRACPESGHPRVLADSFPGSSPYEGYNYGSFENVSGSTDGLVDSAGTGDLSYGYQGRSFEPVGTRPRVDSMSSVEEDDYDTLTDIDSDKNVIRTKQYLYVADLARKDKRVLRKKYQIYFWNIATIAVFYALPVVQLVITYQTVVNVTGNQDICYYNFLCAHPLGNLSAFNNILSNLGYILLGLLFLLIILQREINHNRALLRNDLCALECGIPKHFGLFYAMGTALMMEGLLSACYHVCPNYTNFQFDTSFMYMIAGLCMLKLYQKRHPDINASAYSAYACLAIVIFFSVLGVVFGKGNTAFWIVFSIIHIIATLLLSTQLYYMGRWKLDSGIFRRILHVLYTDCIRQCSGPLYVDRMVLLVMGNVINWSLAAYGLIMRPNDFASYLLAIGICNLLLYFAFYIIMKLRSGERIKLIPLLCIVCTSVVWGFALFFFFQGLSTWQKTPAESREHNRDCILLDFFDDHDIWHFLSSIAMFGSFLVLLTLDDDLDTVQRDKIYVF
UniProt Q14141: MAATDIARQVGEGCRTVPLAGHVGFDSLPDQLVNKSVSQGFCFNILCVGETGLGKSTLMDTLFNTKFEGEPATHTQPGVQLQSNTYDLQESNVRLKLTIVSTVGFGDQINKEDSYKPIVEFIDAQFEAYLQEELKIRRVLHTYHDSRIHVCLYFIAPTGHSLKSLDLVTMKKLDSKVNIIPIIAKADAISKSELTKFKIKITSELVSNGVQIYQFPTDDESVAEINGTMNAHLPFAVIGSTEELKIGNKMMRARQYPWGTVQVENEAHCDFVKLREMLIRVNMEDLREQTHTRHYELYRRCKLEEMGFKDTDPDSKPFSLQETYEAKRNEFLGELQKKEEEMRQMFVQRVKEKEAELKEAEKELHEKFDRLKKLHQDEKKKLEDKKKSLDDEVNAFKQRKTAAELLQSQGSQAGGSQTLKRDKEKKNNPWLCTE
UniProt Q8NEM2: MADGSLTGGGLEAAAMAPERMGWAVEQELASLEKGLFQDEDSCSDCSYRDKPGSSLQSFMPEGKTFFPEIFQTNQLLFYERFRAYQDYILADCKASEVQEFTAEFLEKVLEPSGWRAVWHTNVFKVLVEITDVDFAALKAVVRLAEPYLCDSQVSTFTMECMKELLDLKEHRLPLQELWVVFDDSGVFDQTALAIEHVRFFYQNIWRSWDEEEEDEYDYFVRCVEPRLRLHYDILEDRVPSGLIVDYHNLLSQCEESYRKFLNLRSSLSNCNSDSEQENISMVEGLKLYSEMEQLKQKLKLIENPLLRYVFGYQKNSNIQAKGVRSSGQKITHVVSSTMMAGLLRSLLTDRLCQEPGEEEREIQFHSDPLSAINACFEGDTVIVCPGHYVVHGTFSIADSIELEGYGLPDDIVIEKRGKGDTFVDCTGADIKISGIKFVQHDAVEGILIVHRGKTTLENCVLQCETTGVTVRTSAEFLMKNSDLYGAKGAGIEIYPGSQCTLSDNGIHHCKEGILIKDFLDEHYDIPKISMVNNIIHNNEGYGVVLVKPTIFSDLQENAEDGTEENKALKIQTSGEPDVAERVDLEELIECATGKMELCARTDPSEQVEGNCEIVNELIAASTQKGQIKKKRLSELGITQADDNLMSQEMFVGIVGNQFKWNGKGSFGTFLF
UniProt Q99574: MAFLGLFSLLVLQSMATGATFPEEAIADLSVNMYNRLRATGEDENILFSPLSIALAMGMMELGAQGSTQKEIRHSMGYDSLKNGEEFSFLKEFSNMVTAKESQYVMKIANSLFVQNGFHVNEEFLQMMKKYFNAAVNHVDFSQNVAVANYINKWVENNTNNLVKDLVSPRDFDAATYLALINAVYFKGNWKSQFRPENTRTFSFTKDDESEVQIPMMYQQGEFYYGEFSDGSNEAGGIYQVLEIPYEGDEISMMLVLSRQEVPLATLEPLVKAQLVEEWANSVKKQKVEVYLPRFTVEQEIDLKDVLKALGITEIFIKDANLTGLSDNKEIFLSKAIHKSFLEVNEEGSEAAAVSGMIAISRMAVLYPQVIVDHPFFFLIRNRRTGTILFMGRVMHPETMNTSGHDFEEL
UniProt Q9HD40: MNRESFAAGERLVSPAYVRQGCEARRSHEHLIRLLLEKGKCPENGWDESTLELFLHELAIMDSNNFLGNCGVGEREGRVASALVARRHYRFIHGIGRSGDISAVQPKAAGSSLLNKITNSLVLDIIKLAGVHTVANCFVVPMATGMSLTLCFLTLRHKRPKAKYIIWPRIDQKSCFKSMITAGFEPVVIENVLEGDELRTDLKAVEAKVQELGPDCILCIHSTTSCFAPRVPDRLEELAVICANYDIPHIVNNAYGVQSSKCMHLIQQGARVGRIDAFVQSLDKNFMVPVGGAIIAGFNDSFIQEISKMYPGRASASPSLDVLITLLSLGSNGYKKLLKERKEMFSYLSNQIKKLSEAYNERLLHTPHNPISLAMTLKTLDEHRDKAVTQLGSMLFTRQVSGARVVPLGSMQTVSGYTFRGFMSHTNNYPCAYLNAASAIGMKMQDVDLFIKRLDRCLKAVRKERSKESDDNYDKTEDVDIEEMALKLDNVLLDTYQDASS
UniProt P05543: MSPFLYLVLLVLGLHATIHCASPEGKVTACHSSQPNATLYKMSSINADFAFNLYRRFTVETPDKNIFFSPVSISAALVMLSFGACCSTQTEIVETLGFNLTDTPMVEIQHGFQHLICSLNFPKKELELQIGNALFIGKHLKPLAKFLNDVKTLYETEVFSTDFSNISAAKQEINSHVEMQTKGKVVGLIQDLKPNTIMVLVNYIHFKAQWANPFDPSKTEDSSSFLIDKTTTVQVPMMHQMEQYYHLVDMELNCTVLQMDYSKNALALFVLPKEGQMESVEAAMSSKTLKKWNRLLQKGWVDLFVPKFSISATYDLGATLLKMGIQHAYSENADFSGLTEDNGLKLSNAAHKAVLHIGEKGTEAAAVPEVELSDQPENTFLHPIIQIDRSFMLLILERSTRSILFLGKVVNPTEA
UniProt O14796: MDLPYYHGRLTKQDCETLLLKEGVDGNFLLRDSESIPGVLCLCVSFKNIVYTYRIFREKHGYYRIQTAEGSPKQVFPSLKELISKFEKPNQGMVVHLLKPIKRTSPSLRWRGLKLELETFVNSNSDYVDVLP
UniProt Q13530: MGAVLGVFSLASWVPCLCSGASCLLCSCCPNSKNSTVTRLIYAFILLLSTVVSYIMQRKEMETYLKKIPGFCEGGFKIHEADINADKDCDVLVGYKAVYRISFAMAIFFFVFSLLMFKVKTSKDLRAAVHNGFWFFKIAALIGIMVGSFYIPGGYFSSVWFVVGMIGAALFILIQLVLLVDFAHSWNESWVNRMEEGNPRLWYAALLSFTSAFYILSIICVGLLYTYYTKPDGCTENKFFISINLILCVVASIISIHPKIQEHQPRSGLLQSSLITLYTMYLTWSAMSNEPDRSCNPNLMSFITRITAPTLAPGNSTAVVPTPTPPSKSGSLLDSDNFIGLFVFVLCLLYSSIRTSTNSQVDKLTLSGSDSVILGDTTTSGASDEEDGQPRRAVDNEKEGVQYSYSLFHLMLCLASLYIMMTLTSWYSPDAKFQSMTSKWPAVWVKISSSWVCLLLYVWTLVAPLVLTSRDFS
UniProt Q7L8J4: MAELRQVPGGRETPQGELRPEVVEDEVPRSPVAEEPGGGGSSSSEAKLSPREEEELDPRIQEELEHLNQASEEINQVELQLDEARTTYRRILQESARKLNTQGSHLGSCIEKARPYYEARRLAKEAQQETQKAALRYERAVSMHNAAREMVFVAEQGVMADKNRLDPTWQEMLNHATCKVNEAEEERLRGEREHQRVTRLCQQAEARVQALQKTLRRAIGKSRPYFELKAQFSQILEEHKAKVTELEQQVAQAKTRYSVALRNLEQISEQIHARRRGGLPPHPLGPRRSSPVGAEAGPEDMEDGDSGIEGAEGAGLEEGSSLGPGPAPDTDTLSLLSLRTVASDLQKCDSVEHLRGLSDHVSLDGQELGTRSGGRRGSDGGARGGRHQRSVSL

Assays:
Experiment in all cases: log2 fold change, soluble protein after heating vs DMSO (PISA); higher = thermal stabilisation; K562 cells, 10 uM, 30 min; active = over 0.2 and 3.5 SD of the protein, either way, in both replicates (recomputed)
[1] = compound: COC1=CC=C(C=C1)CN2C=CC3=C2C=C(C=C3)C(=O)NO
How it was run: (§1)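 Values are thermal stability changes relative to control samples and are taken from duplicates. They are stated as log2 fold changes. Before quantification by TMTpro 16plex LC-MS/MS with equalised channel sums, K562 cells at 2×10^6 cells/mL were treated with 10 μM compound for 30 min, heated in aliquots for 3 min across 48°C-58°C, pooled, extracted in PBS with 0.5% NP-40 at 4°C, and centrifuged at 21,000xg for 90 min to give the soluble supernatant.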

[2] = compound: CON(C)C(=O)N1N=C(c2cc(F)ccc2F)S[C@@]1(CCCN)c1ccccc1 [filanesib]
How it was run: as §1

[3] = compound: CO[C@H]1C[C@@H]2CC[C@@H](C)[C@@](O)(O2)C(=O)C(=O)N2CCCC[C@H]2C(=O)O[C@H]([C@H](C)C[C@@H]2CC[C@H](n3cnnn3)[C@H](OC)C2)CC(=O)[C@H](C)/C=C(\C)[C@@H](O)[C@@H](OC)C(=O)[C@H](C)C[C@H](C)/C=C/C=C/C=C/1C [zotarolimus]
How it was run: as §1

[4] = compound: COc1cc(C(=O)O)ccc1NC(=O)[C@@H]1N[C@@H](CC(C)(C)C)[C@](C#N)(c2ccc(Cl)cc2F)[C@H]1c1cccc(Cl)c1F [idasanutlin]
How it was run: as §1

[5] = compound: COc1cc(Nc2ncc3c(n2)-c2ccc(Cl)cc2C(c2c(F)cccc2OC)=NC3)ccc1C(=O)O [alisertib]
How it was run: as §1

[6] = compound: COc1cc2nc(-c3cc(F)ccc3O)nc(N[C@@H]3CNC[C@H]3C(C)(C)O)c2cc1OC
How it was run: as §1

[7] = compound: COc1cc2ncnc(Nc3ccc(F)c(Cl)c3)c2cc1OCCCN1CCOCC1 [gefitinib]
How it was run: as §1

[8] = compound: COc1cccc2cc(-c3nc([C@H]4CC[C@H](C(=O)O)CC4)n4ncnc(N)c34)[nH]c12
How it was run: as §1

[9] = compound: CS(=O)(=O)CCNCc1ccc(-c2ccc3ncnc(Nc4ccc(OCc5cccc(F)c5)c(Cl)c4)c3c2)o1 [lapatinib]
How it was run: as §1

[10] = compound: CS(=O)(=O)N1CCN(Cc2cc3nc(-c4cccc5[nH]ncc45)nc(N4CCOCC4)c3s2)CC1 [pictilisib]
How it was run: as §1

[11] = compound: CS(=O)(=O)c1ccc(-c2cnc(N)c(C(=O)Nc3ccccc3)n2)cc1
How it was run: as §1

[12] = compound: C[C@@H](Oc1cc(-c2cnn(C3CCNCC3)c2)cnc1N)c1c(Cl)ccc(F)c1Cl [crizotinib]
How it was run: as §1

[13] = compound: C[C@@H]1COCCN1C2=NC(=NC(=C2)C3(CC3)S(=O)(=O)C)C4=C5C=CNC5=CC=C4
How it was run: as §1

[14] = compound: C[C@H](C1=CC=C(C=C1)C(=O)NC2=C3C=CNC3=NC=C2)N
How it was run: as §1

[15] = compound: C[C@H](Nc1ncnc2nc[nH]c12)c1cc2cccc(Cl)c2c(=O)n1-c1ccccc1 [duvelisib]
How it was run: as §1

[16] = compound: Cc1cc(Nc2cc(CN3CCOCC3)c3nc(C)c(Cc4ccc(Cl)cc4F)n3n2)n[nH]1 [gandotinib]
How it was run: as §1

[17] = compound: Cc1cc(Nc2cc(N3CCN(C)CC3)nc(Sc3ccc(NC(=O)C4CC4)cc3)n2)n[nH]1 [tozasertib]
How it was run: as §1

[18] = compound: Cc1cc(SCc2sc(-c3ccc(C(F)(F)F)cc3)nc2C)ccc1OCC(=O)O
How it was run: as §1

[19] = compound: Cc1ccc(-n2nc(C(C)(C)C)cc2NC(=O)Nc2ccc(OCCN3CCOCC3)c3ccccc23)cc1 [doramapimod]
How it was run: as §1

[20] = compound: Cc1ccc(C(=O)N(CCCN)[C@@H](c2nc3cc(Cl)ccc3c(=O)n2Cc2ccccc2)C(C)C)cc1 [ispinesib]
How it was run: as §1

Measured: log2 fold change

SEPTIN8 (UniProt Q92599)
inactive: [1] -0.044 | [2] -0.068 | [3] -0.022 | [4] -0.064 | [5] -0.078 | [6] 0.042 | [7] 0.002 | [8] 0.049 | [9] -0.005 | [10] 0.046 | [11] -0.03 | [12] 0.062 | [13] 0.078 | [14] -0.049 | [15] 0.058 | [16] -0.024 | [17] -0.028 | [18] -0.003 | [19] -0.015 | [20] 0.05

SF3B6 (UniProt Q9Y3B4)
inactive: [1] -0.022 | [2] 0.01 | [3] -0.017 | [4] 0.034 | [5] -0.07 | [6] -0.043 | [7] -0.027 | [8] 0.017 | [9] 0.073 | [10] 0.028 | [11] -0.036 | [12] -0.05 | [13] -0.032 | [14] 0.183 | [15] -0.071 | [16] -0.062 | [17] -0.019 | [18] 0.041 | [19] 0 | [20] 0.019

SKP1 (UniProt P63208)
inactive: [1] 0.209 | [2] -0.095 | [3] 0.09 | [4] 0.027 | [5] -0.005 | [6] -0.099 | [7] 0.001 | [8] -0.008 | [9] 0.01 | [10] -0.121 | [11] -0.052 | [12] 0.027 | [13] -0.039 | [14] -0.19 | [16] -0.035 | [18] 0.038 | [19] -0.096 | [20] 0.089

SIRT2 (UniProt Q8IXJ6)
inactive: [1] 0.083 | [2] -0.02 | [3] -0.029 | [4] 0.016 | [5] 0.036 | [6] -0.012 | [7] 0.069 | [8] 0.017 | [9] 0.065 | [10] 0.168 | [11] 0.042 | [12] -0.015 | [13] -0.002 | [14] 0.072 | [16] 0.002 | [18] -0.032 | [19] -0.009 | [20] -0.001

SH3GL1 (UniProt Q99961)
inactive: [1] 0.046 | [2] -0.047 | [3] 0.062 | [4] 0 | [5] 0.012 | [6] 0 | [7] -0.029 | [8] -0.048 | [9] -0.008 | [10] -0.005 | [11] 0.067 | [12] -0.144 | [13] 0.024 | [14] 0.062 | [16] -0.031 | [18] 0.103 | [19] 0.007 | [20] -0.156

SESN2 (UniProt P58004)
inactive: [1] 0.013 | [2] -0.174 | [3] 0.099 | [4] -0.107 | [5] -0.005 | [6] -0.112 | [7] 0.08 | [8] -0.085 | [9] 0.25 | [10] 0.167 | [11] 0.042 | [12] -0.191 | [13] -0.028 | [14] 0.077 | [16] -0.046 | [18] 0.006 | [19] 0.192 | [20] -0.322

SHROOM2 (UniProt Q13796)
inactive: [1] 0.417 | [2] 0.066 | [3] 0.02 | [4] -0.045 | [5] -0.027 | [6] 0.237 | [7] 0.056 | [8] 0.009 | [9] -0.188 | [10] 0.226 | [11] 0.093 | [12] 0.005 | [13] 0.013 | [14] -0.099 | [16] 0.397 | [18] -0.233 | [19] 0.008

Fetched one by one from above, two records:
SH3GL1 (UniProt Q99961)
inactive: [1] 0.046 | [2] -0.047 | [3] 0.062 | [4] 0 | [5] 0.012 | [6] 0 | [7] -0.029 | [8] -0.048 | [9] -0.008 | [10] -0.005 | [11] 0.067 | [12] -0.144 | [13] 0.024 | [14] 0.062 | [16] -0.031 | [18] 0.103 | [19] 0.007 | [20] -0.156

SKP1 (UniProt P63208)
inactive: [1] 0.209 | [2] -0.095 | [3] 0.09 | [4] 0.027 | [5] -0.005 | [6] -0.099 | [7] 0.001 | [8] -0.008 | [9] 0.01 | [10] -0.121 | [11] -0.052 | [12] 0.027 | [13] -0.039 | [14] -0.19 | [16] -0.035 | [18] 0.038 | [19] -0.096 | [20] 0.089

The list goes on:

SIDT2 isoform 2 (UniProt Q8NBJ9)
inactive: [1] -0.062 | [2] -0.08 | [3] 0.127 | [4] 0.01 | [5] 0.082 | [6] -0.065 | [7] -0.207 | [8] 0.009 | [9] 0.004 | [10] 0.044 | [11] 0.132 | [12] -0.026 | [13] -0.017 | [14] -0.004 | [16] 0.006 | [18] -0.186 | [19] 0.254 | [20] -0.143

SEPTIN6 (UniProt Q14141)
inactive: [1] -0.011 | [2] -0.032 | [3] -0.032 | [4] -0.047 | [5] -0.097 | [6] 0.007 | [7] -0.017 | [8] -0.01 | [9] -0.007 | [10] -0.044 | [11] 0.018 | [12] 0.013 | [13] 0.018 | [14] -0.028 | [15] -0.001 | [16] -0.085 | [17] -0.011 | [18] -0.008 | [19] -0.008 | [20] 0.016

SHCBP1 (UniProt Q8NEM2)
inactive: [1] -0.014 | [2] 0.059 | [3] 0.103 | [4] -0.023 | [5] 0.134 | [6] 0.102 | [7] 0 | [8] -0.056 | [9] -0.13 | [10] -0.057 | [11] 0.092 | [12] -0.077 | [13] 0.043 | [14] 0.119 | [16] -0.124 | [18] 0.169 | [19] 0.02 | [20] -0.096

SERPINI1 (UniProt Q99574)
inactive: [1] 0.02 | [2] 0.022 | [3] -0.073 | [4] -0.163 | [5] -0.014 | [6] 0.043 | [7] -0.026 | [8] -0.056 | [9] 0.049 | [10] 0.038 | [11] -0.024 | [12] 0.149 | [13] 0.039 | [14] -0.086 | [15] 0.016 | [16] 0.184 | [17] -0.027 | [18] -0.048 | [19] -0.012 | [20] 0.039

SEPSECS (UniProt Q9HD40)
inactive: [1] 0.039 | [2] -0.055 | [3] 0.016 | [4] -0.039 | [5] 0.794 | [6] -0.052 | [7] 0.016 | [8] 0.023 | [9] 0.018 | [10] 0.078 | [11] 0.023 | [12] 0.082 | [13] -0.043 | [14] -0.173 | [15] -0.03 | [16] -0.065 | [17] -0.02 | [18] -0.079 | [19] -0.009 | [20] 0.012

SERPINA7 (UniProt P05543)
inactive: [1] -0.213 | [2] 0.251 | [3] -0.206 | [4] 0.071 | [5] 0.052 | [6] 0.008 | [7] -0.157 | [8] 0.381 | [9] -0.017 | [10] -0.088 | [11] -0.16 | [12] 0.133 | [13] -0.095 | [14] 0.257 | [16] -0.02 | [18] -0.158 | [19] 0.217 | [20] 0.068

SH2D1B (UniProt O14796)
active: [12] -0.765
inactive: [1] 0.129 | [2] 0.086 | [3] -0.037 | [4] 0.117 | [5] -0.075 | [6] 0.072 | [7] -0.078 | [8] 0.236 | [9] 0.053 | [10] -0.004 | [11] -0.031 | [13] 0.075 | [14] -0.201 | [16] -0.692 | [18] -0.08 | [19] -0.072 | [20] 0.06

SERINC3 (UniProt Q13530)
inactive: [1] -0.015 | [2] -0.222 | [3] -0.062 | [4] 0.136 | [5] 0 | [6] -0.17 | [7] -0.069 | [8] 0.042 | [9] -0.181 | [10] 0.181 | [11] 0.15 | [12] -0.228 | [13] 0.017 | [14] 0.225 | [16] -0.088 | [18] 0.096 | [19] -0.051 | [20] -0.17

SH3BP5L (UniProt Q7L8J4)
inactive: [1] 0.003 | [2] 0.287 | [3] -0.011 | [4] 0.008 | [5] -0.004 | [6] -0.112 | [7] 0.028 | [8] 0.008 | [9] 0.017 | [10] 0.039 | [11] 0.124 | [12] 0.059 | [13] -0.097 | [14] 0.003 | [15] -0.033 | [16] -0.091 | [17] 0.065 | [18] 0.015 | [19] 0.049 | [20] -0.065
